Laboratory results: paper PMC12041782
Results are given in words; binding and its absence hold for the method and conditions named. In cells and extracts the contact can be indirect. A yes stands for co-enrichment or nearness to the bait. Other partners may have been found.

By UniProt entry, the sequences of proteins in these tests, tags left out. Residues count along the entry.
UniProt Q9BZS1, residues 1-417: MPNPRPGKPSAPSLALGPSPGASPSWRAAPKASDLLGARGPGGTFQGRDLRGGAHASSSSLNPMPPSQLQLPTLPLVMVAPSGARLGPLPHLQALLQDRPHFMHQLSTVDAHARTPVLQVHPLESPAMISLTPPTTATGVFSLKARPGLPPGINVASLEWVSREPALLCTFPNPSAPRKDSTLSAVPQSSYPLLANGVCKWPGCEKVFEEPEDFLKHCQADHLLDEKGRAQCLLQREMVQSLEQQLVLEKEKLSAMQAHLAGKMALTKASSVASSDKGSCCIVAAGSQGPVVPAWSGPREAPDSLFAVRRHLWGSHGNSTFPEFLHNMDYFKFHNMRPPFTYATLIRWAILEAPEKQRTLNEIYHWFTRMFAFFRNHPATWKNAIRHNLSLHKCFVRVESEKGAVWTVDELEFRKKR
UniProt P51114: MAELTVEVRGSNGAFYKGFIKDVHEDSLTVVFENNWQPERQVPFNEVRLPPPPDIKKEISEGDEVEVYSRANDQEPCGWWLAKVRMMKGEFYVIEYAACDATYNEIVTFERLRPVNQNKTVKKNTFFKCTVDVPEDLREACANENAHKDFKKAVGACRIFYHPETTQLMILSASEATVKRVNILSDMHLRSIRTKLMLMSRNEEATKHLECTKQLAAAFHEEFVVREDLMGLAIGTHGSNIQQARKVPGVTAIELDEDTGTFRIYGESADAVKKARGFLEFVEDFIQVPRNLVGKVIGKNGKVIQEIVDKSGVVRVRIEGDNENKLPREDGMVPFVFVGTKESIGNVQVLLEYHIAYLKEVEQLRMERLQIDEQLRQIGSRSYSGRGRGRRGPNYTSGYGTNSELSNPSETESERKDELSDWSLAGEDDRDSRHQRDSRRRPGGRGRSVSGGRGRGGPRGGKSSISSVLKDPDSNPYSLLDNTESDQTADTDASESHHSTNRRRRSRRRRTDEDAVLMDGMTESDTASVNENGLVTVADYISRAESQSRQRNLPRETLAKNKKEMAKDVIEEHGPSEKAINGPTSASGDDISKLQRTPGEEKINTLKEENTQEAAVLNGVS
UniProt P51116: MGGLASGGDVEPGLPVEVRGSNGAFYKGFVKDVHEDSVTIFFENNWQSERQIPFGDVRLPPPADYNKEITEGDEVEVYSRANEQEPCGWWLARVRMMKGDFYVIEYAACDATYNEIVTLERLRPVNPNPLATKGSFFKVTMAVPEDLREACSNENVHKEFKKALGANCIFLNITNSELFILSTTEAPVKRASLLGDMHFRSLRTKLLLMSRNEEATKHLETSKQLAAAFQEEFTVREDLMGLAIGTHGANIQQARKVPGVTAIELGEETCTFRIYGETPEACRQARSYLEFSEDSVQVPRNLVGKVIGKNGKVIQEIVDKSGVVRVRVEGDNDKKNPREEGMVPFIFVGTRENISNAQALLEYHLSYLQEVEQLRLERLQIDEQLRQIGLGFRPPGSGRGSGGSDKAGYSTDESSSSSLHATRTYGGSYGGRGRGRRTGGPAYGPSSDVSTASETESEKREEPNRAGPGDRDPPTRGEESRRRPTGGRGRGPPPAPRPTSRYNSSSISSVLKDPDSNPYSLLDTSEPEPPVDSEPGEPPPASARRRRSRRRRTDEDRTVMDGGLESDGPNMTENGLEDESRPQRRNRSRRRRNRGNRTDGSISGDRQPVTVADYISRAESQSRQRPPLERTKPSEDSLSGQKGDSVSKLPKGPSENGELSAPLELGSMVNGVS

Target: forkhead box P3 (FOXP3), endogenous in HEK293T cells (human (endogenous in HEK293T)) (UniProt Q9BZS1)
Assay: affinity purification with mass spectrometry; HEK293T lysate in non-denaturing lysis buffer; anti-FOXP3 antibody with protein A/G magnetic beads; LC-MS/MS; IgG precipitate as negative control

| binding | Substance |
| --- | --- |
| binds | FMR1 autosomal homolog 1 (FXR1), endogenous in HEK293T cells (from UniProt P51114 1-621) |
| binds | FXR2, endogenous in HEK293T cells (from UniProt P51116 1-673) |
